Source: patent US7638055B2, “Sludge quality” (Rhodia Operations, priority 2004, dated 2009)
Like-named read-outs stand apart in the source and are kept apart here.

Details: sample 48 days after start up, settling period of one hour

## tetrakis(hydroxymethyl)phosphonium sulphate [Compound X]
2 mg/l/day
  Observations (settling of sludge): Clear water with settled sludge at bottom
4 mg/l/day
  Observations (settling of sludge): Clear water with settled sludge at bottom
